No constants are given. Whether binding was seen depends on the method and setting. Some entries that bind do so weakly or less than the wild type. Sequences can lack the tags named with a protein.
Target: T1, Full-length Top2, yeast two-hybrid fusion (budding yeast (S. cerevisiae)) (UniProt P06786)
T1 sequence: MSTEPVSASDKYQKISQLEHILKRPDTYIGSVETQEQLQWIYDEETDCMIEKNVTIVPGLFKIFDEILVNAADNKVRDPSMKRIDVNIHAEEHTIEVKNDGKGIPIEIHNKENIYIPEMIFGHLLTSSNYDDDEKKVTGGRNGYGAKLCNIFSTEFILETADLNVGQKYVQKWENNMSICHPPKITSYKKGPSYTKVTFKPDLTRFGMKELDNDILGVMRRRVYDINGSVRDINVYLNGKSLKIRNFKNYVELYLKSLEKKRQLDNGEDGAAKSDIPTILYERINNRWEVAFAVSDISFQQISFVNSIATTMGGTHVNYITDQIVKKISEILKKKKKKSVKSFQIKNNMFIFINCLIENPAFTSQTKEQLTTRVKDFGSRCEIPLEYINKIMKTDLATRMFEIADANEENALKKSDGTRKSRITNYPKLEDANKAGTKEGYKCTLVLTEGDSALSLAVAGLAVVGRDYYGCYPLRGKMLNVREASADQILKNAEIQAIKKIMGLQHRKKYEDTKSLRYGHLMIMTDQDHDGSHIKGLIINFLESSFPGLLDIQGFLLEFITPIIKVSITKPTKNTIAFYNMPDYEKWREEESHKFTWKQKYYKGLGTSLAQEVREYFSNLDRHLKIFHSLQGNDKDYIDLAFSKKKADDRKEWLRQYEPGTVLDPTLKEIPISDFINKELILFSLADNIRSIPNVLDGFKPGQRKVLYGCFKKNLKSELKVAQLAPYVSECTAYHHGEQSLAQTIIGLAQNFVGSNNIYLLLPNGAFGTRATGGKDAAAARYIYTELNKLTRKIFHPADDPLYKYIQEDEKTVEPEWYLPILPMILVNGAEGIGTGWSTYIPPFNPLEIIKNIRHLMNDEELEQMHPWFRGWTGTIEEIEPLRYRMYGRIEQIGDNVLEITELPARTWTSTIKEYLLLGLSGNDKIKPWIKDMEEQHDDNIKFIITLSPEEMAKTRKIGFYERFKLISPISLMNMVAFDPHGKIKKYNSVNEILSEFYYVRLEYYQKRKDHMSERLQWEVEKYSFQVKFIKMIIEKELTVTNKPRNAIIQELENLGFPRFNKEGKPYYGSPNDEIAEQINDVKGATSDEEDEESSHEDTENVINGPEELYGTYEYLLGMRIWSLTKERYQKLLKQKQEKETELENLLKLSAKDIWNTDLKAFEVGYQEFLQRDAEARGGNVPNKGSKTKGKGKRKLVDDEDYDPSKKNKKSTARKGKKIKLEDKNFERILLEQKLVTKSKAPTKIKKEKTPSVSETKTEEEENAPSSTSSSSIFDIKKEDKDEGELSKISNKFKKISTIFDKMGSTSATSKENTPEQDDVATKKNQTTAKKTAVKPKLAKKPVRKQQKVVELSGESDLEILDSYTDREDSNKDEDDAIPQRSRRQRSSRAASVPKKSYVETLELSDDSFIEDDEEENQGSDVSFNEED
Experiment: two-hybrid; Gal4 activator domain (pOAD) and Gal4 binding domain (pOBD) plasmids in yeast; growth on -LWH plates with 5 mM 3-Amino-1,2,4-triazole, control -LW plates

Protein sequences, listed by entry. Tags and fused reporters are not part of them.
UniProt Q08562: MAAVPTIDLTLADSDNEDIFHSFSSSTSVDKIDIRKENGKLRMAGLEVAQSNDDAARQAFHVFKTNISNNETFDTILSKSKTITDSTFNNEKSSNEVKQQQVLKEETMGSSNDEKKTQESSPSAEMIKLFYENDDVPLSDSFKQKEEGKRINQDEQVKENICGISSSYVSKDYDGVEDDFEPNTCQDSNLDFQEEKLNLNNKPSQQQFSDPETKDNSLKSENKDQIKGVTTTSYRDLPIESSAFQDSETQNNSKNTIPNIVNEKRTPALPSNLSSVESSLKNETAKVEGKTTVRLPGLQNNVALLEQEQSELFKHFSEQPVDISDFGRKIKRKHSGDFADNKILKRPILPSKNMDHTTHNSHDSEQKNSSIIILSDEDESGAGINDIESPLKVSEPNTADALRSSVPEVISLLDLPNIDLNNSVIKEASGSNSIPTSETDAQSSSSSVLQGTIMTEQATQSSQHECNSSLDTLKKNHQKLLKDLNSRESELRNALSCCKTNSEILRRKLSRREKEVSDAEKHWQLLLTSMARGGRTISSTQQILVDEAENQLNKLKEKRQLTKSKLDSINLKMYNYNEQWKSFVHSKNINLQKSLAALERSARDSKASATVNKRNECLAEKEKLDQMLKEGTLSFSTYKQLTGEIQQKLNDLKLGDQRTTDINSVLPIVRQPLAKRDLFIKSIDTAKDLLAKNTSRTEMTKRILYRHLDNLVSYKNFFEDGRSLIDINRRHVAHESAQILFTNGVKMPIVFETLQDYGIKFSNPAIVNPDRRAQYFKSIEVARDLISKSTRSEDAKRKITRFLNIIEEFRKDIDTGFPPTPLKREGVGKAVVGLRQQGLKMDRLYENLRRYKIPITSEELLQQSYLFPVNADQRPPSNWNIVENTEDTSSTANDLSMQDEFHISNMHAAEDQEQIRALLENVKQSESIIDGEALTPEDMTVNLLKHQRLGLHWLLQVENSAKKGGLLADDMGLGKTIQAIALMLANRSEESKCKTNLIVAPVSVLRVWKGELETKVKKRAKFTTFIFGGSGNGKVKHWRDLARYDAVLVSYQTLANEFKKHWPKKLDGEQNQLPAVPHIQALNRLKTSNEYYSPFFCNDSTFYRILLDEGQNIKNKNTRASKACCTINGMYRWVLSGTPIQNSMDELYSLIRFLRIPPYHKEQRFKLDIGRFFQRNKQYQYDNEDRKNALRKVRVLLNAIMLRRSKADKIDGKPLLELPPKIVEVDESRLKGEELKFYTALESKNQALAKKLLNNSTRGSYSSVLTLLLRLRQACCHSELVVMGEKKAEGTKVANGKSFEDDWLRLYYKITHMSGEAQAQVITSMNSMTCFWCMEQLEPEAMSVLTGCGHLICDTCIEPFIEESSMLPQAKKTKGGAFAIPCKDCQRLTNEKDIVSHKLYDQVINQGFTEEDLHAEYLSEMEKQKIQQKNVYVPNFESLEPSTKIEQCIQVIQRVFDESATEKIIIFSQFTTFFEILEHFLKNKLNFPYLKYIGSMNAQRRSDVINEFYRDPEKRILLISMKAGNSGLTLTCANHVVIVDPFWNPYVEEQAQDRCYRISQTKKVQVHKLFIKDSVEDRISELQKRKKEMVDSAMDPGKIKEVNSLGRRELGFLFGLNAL

binding: binds weakly
Substance: Full length Uls1 (HFP136), yeast two-hybrid fusion (from UniProt Q08562 1-1619) (enzyme)

Reference: article PMC6614809
